# Measurements as given in PubChem BioAssay AID1471 (National Center for Advancing Translational Sciences (NCATS), 2008).
# “And” between values parts separate entries of the source, which are not always exact repeats. Identical values can stand only once. The campaign covered roughly 230,000 compounds. About 310 (0.13%) were called active. Inconclusive results, whose numbers are uncertain, are shown with a selection of clear calls. Calls come from the whole dose curve; as a rule, active = well fitted activation curve with a large enough effect; inconclusive = small, poorly fitted or top-dose-only effect; inactive = no such curve, though single readings can be large or run the other way. A potency beside an inconclusive call is a rough fit, not a confirmed value. Some structures have more than one record in an assay (separate samples or runs), and their calls can disagree.
# Experiment: qHTS Multiplex Assay to Identify Dual Action Probes in a Cell Model of Huntington: Cytoprotection (ATP); note: nearly all actives have a fitted effect of over 45% in size;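 for cytoprotection (ATP increase): toxic huntingtin expression switched on by the ecdysone agonist tebufenozide; % of control where 0% means no effect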
# Conditions: PC12 HTT-Q103 induced, ATP luminescence, 40 h; cytoprotection (ATP increase): at 56.4 µM (top of the series) unless noted
# How it was run: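 Readout: ATPlite luminescence (ATP level). Model: stable PC12, inducible Htt exon1 Q103-GFP. Inducer: tebufenozide, 100 nM final. Compounds: dose series. No G418 in medium.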
# Potency is the fitted concentration of half-maximal effect.
Structure (SMILES),Potency,cytoprotection (ATP increase)
COC(=O)C(C(C)=O)C1c2ccccc2C=C(C)N1C(=O)OC (centres undefined),"inconclusive: 3.98 µM [activator, single point]",
COc1ccccc1CNC(=O)CC(C)C,"inconclusive: 1.26 µM [activator, single point]",
CCNc1nc(NC(C)C)nc(NS(=O)(=O)c2ccc(N)cc2)n1,"inconclusive: 2.24 µM [activator, full curve, poor fit]",
CCN(CC)CCCNc1oc(-c2ccc(OC)c(OC)c2)nc1C#N,,inactive: -0.0218% [at 0.074 µM]
CC(C)c1nc2ccccc2n1CC(O)COC1CCCCC1 (centres undefined),,inactive: -23.2%
Nc1ccccc1C(=O)CC(N)C(=O)O (centres undefined),"inconclusive: 1.12 µM [activator, partial curve]",
CCn1ncc(CN2CCN(C(=O)Nc3ccccc3C(=O)OC)CC2)c1C,"inconclusive: 22.4 µM [activator, single point]",
CS(=O)(=O)N1CCC[C@@]2(CCN(c3ncccn3)C2)C1,"inconclusive: 1.41 µM [activator, partial curve]",
CCC1(C)CC2(CCCN(CCC(=O)c3ccccc3)C2)CCO1 (centres undefined),,inactive: 1.26%
CCCCC/C=C\C/C=C\C/C=C\C/C=C\CCCC(=O)O,"inconclusive: 1.78 µM [activator, partial curve, poor fit]",
CC1CC(C)CN(CCOCCSc2ccccc2)C1 (centres undefined),,inactive: -16.9% [at 10 µM]
Clc1ccc(-c2nc(-c3ccccn3)no2)cc1Cl,"inconclusive: 1.26 µM [activator, single point]",
O=C(NCC(=O)N(Cc1ccccc1)C(C(=O)NC1CCCC1)c1ccncc1)c1ccco1 (centres undefined),,inactive: 0.58% [at 1.9 µM]
COc1ncc2nc(-c3cc(F)cc(F)c3)c(=O)n(C[C@H]3CCCO3)c2n1,"inconclusive: 2.82 µM [activator, partial curve]",
CCC(Cc1c(I)cc(I)c(O)c1I)C(=O)O (centres undefined),"inconclusive: 22.4 µM [activator, partial curve, poor fit]",
COC(CNC(=O)c1cc(-c2ccncc2)nc2ccc(S(=O)(=O)N3CCOCC3)cc12)OC,"inconclusive: 2.82 µM [activator, single point]",
C=C1C(=O)O[C@H]2C[C@@]3(C)CCCC(=C)[C@@H]3C[C@H]12,"inconclusive: 39.8 µM [activator, single point]",
CCOC(=O)C(=CNc1cc(C)nn1-c1ccc(C)cc1)C(=O)OCC,"inconclusive: 0.501 µM [activator, full curve, poor fit]",
COc1ccc2[nH]cc(CCNc3nc(-c4cccnc4)nc4ccccc34)c2c1,"inconclusive: 1.26 µM [activator, full curve]",
CCOC(=O)c1ccc(N=CC2=C(O)CC(C)(C)CC2=O)cc1,,inactive: -3.36%
COc1ccc(C(=O)NCCc2nnc3ccc(SCC(=O)Nc4cc(C)on4)nn23)cc1,"inconclusive: 31.6 µM [activator, single point]",
CNC(=O)[C@H]1O[C@H](n2cnc3c(NCc4cccc(I)c4)nc(Cl)nc32)[C@@H](O)[C@@H]1O,"inconclusive: 0.794 µM [activator, partial curve]",

Structure (SMILES),Potency,cytoprotection (ATP increase)
Fc1cccc(Cl)c1CNc1ccc(N2CCCC2)cc1,"inconclusive: 0.562 µM [activator, single point]",
N[C@H](CS)C(=O)O,,inactive: -2.38%
COc1cc(-c2ccc(=O)[nH]n2)ccc1OC(F)F,"inconclusive: 3.55 µM [activator, full curve, poor fit]",
O=C(Nc1cc(C(=O)Nc2ccc(S(=O)(=O)O)cc2S(=O)(=O)O)cc(C(=O)Nc2ccc(S(=O)(=O)O)cc2S(=O)(=O)O)c1)Nc1cc(C(=O)Nc2ccc(S(=O)(=O)O)cc2S(=O)(=O)O)cc(C(=O)Nc2ccc(S(=O)(=O)O)cc2S(=O)(=O)O)c1,"inconclusive: 1.26 µM [activator, single point]",
Cn1c(-c2ccccc2)cc2c3no[n+]([O-])c3ccc21,"inconclusive: 5.62 µM [activator, single point]",
CCOC(=O)C1CCCN(C(=O)COc2ccc(N(C)S(=O)(=O)c3ccc(F)cc3)cc2)C1 (centres undefined),"inconclusive: 0.447 µM [activator, partial curve]",
CCCOc1ccc(C2c3c(oc4ccccc4c3=O)C(=O)N2CCCN2CCOCC2)cc1 (centres undefined),,inactive: -0.589%
COc1ccc(/C=C/C(=O)OCC(=O)Nc2cc3oc4ccccc4c3cc2OC)cc1,"inconclusive: 35.5 µM [activator, single point]",
Nc1nnc(N2CCc3ccccc32)s1,"inconclusive: 0.891 µM [activator, single point]",
CCC(C=C[C@@H]1OC(=O)C=C[C@H]1C)=C[C@H](C)CC=CC(C)=C[C@@H](C)C(=O)[C@@H](C)[C@H](O)[C@@H](C)CC(C)=CC(=O)O,,inactive: -264% [at 1.9 µM]
Cc1cc(NCc2ccccc2)nc2ccccc12,"inconclusive: 1.26 µM [activator, single point]",
COc1ccccc1CNC(=S)Nc1cc(C)ccc1C,"inconclusive: 8.91 µM [activator, single point]",
CCOC(=O)Cn1nc(C)n(-c2ccc(Cl)cc2)c1=O,,inactive: 10.7% [at 10 µM]
CCCCn1c(N)c(N(CC)C(=O)c2cc(OC)cc(OC)c2)c(=O)[nH]c1=O,"inconclusive: 35.5 µM [activator, single point]",
COC(=O)N1c2ccccc2C23[C@@H]4CN5CCC[C@]6(CCC12C(O)(C6)C4=O)[C@H]53,"inconclusive: 0.562 µM [activator, full curve, poor fit]",
COc1cc(NC(=O)C2CC2)c(OC)cc1NC(=O)CCC(=O)NC1CCN(Cc2ccccc2)CC1,"inconclusive: 0.562 µM [activator, single point]",
O=C1[C@H]2O[C@@H]2[C@@H](O)[C@H]2[C@H]1CCn1c(=O)n(Cc3cc4c(cc3Cl)OCO4)c(=O)n12,"inconclusive: 5.62 µM [activator, single point]",
CCCCP(=O)(CCCC)c1ccccc1C(=O)O,,inactive: -6.9% [at 10 µM]
CCCCNc1c(C(=O)OCC)c(C)nc2c1cnn2CC,"inconclusive: 2.82 µM [activator, single point]",
Cc1cc(C)nc(SCc2ccc(F)cc2)n1,active: 3.16 µM,
COc1ncc2nc(-c3ccccc3)c(=O)n(CCC#N)c2n1,,inactive: -35.4%
Cn1cc(C(=O)NCc2ccc(F)cc2)cn1,"inconclusive: 6.31 µM [activator, single point]",

Structure (SMILES),Potency,cytoprotection (ATP increase)
CCN(CC)CCCn1c(-c2ccccc2)nc2c(N3CCOCC3)nc(C)nc21,"inconclusive: 35.5 µM [activator, single point]",
Cc1nc(SCC(=O)Nc2nc3ccccc3s2)c(C#N)c(C)c1C,,inactive: -75.8% [at 10 µM]
O=C(CCC(=O)OCc1ccc(Cl)cc1)Nc1ccccc1,"inconclusive: 2.51 µM [activator, single point]",
O=c1[nH]c(=O)n([C@H]2C[C@H](O)[C@@H](CO)O2)cc1Br,"active: 3.55 µM and inconclusive: 22.4 µM [activator, partial curve, poor fit]",
CC(=O)N1CCN(C(=O)COc2ccc(Br)cc2)CC1,,inactive: -18%
CCOC(=O)CSc1nc2ccc(S(=O)(=O)N3CCOCC3)cc2[nH]1,"inconclusive: 5.01 µM [activator, single point]",
CCOC(=O)C(NC(=O)CC)(Nc1nc2c(s1)CCCC2)C(F)(F)F (centres undefined),"inconclusive: 5.62 µM [activator, single point]",
CCOC(=O)c1ccc(NC(=O)c2cc(=O)[nH]c3ccccc23)cc1,"inconclusive: 3.55 µM [activator, single point]",
O=C(CNC(=S)N(Cc1ccccc1)Cc1ccccc1F)NCCc1ccccc1,,inactive: -64.9%
COc1ccc(-c2nnc(SCC(=O)c3ccc(C)o3)o2)cc1,,inactive: 17.1% [at 10 µM]
COc1cc(C2Nc3c(F)cccc3C3C=CCC32)cc(Br)c1OC (centres undefined),"inconclusive: 25.1 µM [activator, single point]",
CN(C)NC1CC(=O)N(c2ccccc2)C1=O (centres undefined),"inconclusive: 2.82 µM [activator, partial curve]",
CCc1cccc(CC)c1NC(=S)NCCc1ccc(O)c(O)c1,"inconclusive: 10 µM [activator, single point]",
CCCCCCOc1ccc(N2C(=O)CC(N3CCN(CCN=CC4C(=O)CC(C)(C)CC4=O)CC3)C2=O)cc1 (centres undefined),,inactive: -26.3%
O=C(CCCOc1ccccc1)NCC1CCCO1 (centres undefined),,inactive: 1.81%
CCN(CC)S(=O)(=O)c1ccc(N2CCCCC2)c(NC(=O)/C=C/c2cc(OC)c(OC)c(OC)c2)c1,"inconclusive: 1.26 µM [activator, single point]",
Cc1nn(Cc2ccc(Cl)cc2)c(C)c1NC(=O)c1ccc([N+](=O)[O-])cc1,,inactive: 9.7% [at 10 µM]
C[C@@H]1O[C@H](O[C@@H]2\C=C/C=C\C=C/C=C\C[C@H](C)OC(=O)/C=C\[C@H]3O[C@@H]3C[C@H](O)C[C@]3(O)C[C@@H](O)[C@@H](C(=O)O)[C@H](C2)O3)[C@@H](O)[C@H](N)[C@@H]1O (stereo in doubt),"inconclusive: 0.501 µM [activator, full curve, poor fit]",
O=C(Nc1cccc(Cl)c1)Nc1cccc(Cl)c1,"inconclusive: 0.891 µM [activator, single point]",
COc1ccc(Nc2cc(Cl)nc(N)n2)cc1OC,"inconclusive: 0.316 µM [activator, single point]",
